One substance from article PMC5566547, “Nei-like 1 (NEIL1) excises 5-carboxylcytosine directly and stimulates TDG-mediated 5-formyl and 5-carboxylcytosine excision” can be followed below.

Sequences of proteins named here, by UniProt entry; tags and fusion partners are left off. A change or cut given only in a name is not applied to a line headed by its entry. A line that says so, or that is headed by a name, gives the form on record, which may keep a tag or linker.
UniProt Q96FI4: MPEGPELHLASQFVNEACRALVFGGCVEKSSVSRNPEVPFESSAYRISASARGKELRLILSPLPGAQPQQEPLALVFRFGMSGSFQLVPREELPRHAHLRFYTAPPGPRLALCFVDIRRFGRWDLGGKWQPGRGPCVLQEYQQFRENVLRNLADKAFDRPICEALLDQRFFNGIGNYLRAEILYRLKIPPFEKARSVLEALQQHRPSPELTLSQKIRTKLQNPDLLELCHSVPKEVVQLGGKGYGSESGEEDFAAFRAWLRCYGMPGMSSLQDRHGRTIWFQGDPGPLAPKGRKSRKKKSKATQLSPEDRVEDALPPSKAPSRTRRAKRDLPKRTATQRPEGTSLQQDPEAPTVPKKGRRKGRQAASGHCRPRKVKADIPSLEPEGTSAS
NEIL1 E3Q (human Nei-like 1, E3Q variant, C-terminal hexahistidine tag) (Q96FI4, form named): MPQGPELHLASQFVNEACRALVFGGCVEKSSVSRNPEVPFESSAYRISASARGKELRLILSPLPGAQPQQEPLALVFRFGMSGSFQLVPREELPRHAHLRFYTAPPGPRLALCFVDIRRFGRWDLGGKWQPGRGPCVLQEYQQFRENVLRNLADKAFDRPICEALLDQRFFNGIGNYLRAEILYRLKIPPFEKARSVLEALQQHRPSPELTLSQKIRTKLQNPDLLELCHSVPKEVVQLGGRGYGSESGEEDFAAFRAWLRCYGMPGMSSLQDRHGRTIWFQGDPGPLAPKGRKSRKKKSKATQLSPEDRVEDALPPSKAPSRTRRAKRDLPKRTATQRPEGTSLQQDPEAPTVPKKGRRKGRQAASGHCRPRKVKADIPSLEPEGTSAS

The target of the experiment is NEIL1 E3Q (human Nei-like 1, E3Q variant, C-terminal hexahistidine tag) (human) (UniProt Q96FI4). In words: SEC; Superdex 200 10/300 GL; separate injections of NEIL1 E3Q or TDG alone (5nmoles in 0.5 ml); SEC buffer 70 mM MOPS pH7.5, 5% glycerol, 1 mM EDTA, 1 mM DTT, 100 mM KCl; column calibrated with mass standards; both purified.

Results are given in words; binding and its absence hold for the method and conditions named.

“NEIL1 E3Q (human Nei-like 1, E3Q variant, C-terminal hexahistidine tag) (from UniProt Q96FI4 1-390) (enzyme)”: the binding entry was “no binding (tested: 5nmoles in 0.5 ml total volume)”.
